According to PMC6570784:
Results are given in words; binding and its absence hold for the method and conditions named. In cells and extracts the contact can be indirect. Some results given as binding are weak or reduced against the parent protein; the word gives no strength.

Chains of the proteins cited; added tags and fusions are not shown. Lines headed by an entry give the natural chain unless they say otherwise; changes in a name come on top.
UniProt P35637: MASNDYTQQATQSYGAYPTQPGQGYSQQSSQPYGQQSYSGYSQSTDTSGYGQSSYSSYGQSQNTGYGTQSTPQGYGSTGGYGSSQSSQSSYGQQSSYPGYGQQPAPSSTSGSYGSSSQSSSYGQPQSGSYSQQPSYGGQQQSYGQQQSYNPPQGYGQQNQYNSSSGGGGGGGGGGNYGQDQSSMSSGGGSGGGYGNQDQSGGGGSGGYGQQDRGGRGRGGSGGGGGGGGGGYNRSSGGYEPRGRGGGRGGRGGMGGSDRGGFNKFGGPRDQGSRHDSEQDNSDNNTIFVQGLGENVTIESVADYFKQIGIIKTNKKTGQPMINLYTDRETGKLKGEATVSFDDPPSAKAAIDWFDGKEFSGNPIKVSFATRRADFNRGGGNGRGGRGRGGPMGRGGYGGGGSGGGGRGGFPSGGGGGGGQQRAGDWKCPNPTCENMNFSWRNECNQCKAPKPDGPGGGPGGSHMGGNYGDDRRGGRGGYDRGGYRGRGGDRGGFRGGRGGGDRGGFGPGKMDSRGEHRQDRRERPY
UniProt Q13148: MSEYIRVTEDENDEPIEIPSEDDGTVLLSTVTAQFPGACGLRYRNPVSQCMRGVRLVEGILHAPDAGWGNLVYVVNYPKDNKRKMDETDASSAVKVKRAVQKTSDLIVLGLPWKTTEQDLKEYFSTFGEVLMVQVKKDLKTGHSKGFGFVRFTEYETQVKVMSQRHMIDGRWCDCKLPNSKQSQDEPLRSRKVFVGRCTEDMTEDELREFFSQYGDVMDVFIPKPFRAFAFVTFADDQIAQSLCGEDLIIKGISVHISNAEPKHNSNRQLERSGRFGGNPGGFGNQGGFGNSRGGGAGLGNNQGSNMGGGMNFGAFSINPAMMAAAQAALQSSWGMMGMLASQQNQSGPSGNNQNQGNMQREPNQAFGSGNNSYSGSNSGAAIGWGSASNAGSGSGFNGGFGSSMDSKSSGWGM
UniProt Q01844: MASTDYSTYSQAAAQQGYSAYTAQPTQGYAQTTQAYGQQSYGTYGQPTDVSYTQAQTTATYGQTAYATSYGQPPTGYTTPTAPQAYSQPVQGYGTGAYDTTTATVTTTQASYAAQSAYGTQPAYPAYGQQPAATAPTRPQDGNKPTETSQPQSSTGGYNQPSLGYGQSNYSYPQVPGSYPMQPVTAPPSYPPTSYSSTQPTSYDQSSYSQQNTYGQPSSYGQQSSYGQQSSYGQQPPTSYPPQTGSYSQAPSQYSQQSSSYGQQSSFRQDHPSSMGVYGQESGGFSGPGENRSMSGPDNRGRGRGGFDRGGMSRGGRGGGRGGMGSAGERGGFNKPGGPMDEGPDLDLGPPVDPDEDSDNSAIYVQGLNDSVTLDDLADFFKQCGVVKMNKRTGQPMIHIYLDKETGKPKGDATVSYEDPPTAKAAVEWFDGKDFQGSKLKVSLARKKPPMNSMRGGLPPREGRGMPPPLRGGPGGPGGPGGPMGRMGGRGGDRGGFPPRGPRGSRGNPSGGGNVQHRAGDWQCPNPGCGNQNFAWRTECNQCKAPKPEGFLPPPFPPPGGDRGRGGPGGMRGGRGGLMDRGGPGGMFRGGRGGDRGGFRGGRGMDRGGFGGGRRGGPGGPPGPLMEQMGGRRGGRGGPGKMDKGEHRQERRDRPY

Legend:
Assay in all cases: co-IP; GFP-Trap immunoprecipitation of FUS-eGFP from LL and SL iPSC-derived neurons, Western blot of the interactors
[1] = biological target: LL P525L FUS-eGFP (human (endogenous in iPSC-derived neurons)) (UniProt P35637)
[2] = biological target: LL WT FUS-eGFP (human (endogenous in iPSC-derived neurons)) (UniProt P35637)
[3] = biological target: SL P525L FUS-eGFP (human (endogenous in iPSC-derived neurons)) (UniProt P35637)
[4] = biological target: SL WT FUS-eGFP (human (endogenous in iPSC-derived neurons)) (UniProt P35637)

Molecule: TAR DNA-binding protein 43 (from UniProt Q13148 1-414)
- binding [1]: binds
- binding [2]: binds

Molecule: Ewing sarcoma breakpoint region 1 (from UniProt Q01844 1-656)
- binding [1]: binds
- binding [2]: binds
- binding [3]: binds
- binding [4]: binds

B1: Matrin3 (protein, UniProt P43243 1-847)
chain: MSKSFQQSSLSRDSQGHGRDLSAAGIGLLAAATQSLSMPASLGRMNQGTARLASLMNLGMSSSLNQQGAHSALSSASTSSHNLQSIFNIGSRGPLPLSSQHRGDADQASNILASFGLSARDLDELSRYPEDKITPENLPQILLQLKRRRTEEGPTLSYGRDGRSATREPPYRVPRDDWEEKRHFRRDSFDDRGPSLNPVLDYDHGSRSQESGYYDRMDYEDDRLRDGERCRDDSFFGETSHNYHKFDSEYERMGRGPGPLQERSLFEKKRGAPPSSNIEDFHGLLPKGYPHLCSICDLPVHSNKEWSQHINGASHSRRCQLLLEIYPEWNPDNDTGHTMGDPFMLQQSTNPAPGILGPPPPSFHLGGPAVGPRGNLGAGNGNLQGPRHMQKGRVETSRVVHIMDFQRGKNLRYQLLQLVEPFGVISNHLILNKINEAFIEMATTEDAQAAVDYYTTTPALVFGKPVRVHLSQKYKRIKKPEGKPDQKFDQKQELGRVIHLSNLPHSGYSDSAVLKLAEPYGKIKNYILMRMKSQAFIEMETREDAMAMVDHCLKKALWFQGRCVKVDLSEKYKKLVLRIPNRGIDLLKKDKSRKRSYSPDGKESPSDKKSKTDGSQKTESSTEGKEQEEKSGEDGEKDTKDDQTEQEPNMLLESEDELLVDEEEAAALLESGSSVGDETDLANLGDVASDGKKEPSDKAVKKDGSASAAAKKKLKKVDKIEELDQENEAALENGIKNEENTEPGAESSENADDPNKDTSENADGQSDENKDDYTIPDEYRIGPYQPNVPVGIDYVIPKTGFYCKLCSLFYTNEEVAKNTHCSSLPHYQKLKKFLNKLAEERRQKKET
- binding [1]: binds
- binding [2]: binds
